## Library screen at single concentrations

Amino acid sequences for entries named in this document (tags omitted). Residues count along the entry.
UniProt A4I591, 1-473: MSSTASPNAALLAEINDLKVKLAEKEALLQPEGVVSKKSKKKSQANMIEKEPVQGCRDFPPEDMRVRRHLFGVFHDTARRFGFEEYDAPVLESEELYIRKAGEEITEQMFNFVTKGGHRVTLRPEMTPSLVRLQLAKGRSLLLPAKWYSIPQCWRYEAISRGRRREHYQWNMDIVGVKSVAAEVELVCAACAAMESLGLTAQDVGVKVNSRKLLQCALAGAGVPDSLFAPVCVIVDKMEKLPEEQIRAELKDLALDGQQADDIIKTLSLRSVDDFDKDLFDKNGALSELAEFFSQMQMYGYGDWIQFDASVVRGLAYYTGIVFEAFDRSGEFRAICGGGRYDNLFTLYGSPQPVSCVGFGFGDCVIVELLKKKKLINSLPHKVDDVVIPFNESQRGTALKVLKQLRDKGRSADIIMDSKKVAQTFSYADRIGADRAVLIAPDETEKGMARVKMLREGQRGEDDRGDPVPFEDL
UniProt I6X8D2, whole entry: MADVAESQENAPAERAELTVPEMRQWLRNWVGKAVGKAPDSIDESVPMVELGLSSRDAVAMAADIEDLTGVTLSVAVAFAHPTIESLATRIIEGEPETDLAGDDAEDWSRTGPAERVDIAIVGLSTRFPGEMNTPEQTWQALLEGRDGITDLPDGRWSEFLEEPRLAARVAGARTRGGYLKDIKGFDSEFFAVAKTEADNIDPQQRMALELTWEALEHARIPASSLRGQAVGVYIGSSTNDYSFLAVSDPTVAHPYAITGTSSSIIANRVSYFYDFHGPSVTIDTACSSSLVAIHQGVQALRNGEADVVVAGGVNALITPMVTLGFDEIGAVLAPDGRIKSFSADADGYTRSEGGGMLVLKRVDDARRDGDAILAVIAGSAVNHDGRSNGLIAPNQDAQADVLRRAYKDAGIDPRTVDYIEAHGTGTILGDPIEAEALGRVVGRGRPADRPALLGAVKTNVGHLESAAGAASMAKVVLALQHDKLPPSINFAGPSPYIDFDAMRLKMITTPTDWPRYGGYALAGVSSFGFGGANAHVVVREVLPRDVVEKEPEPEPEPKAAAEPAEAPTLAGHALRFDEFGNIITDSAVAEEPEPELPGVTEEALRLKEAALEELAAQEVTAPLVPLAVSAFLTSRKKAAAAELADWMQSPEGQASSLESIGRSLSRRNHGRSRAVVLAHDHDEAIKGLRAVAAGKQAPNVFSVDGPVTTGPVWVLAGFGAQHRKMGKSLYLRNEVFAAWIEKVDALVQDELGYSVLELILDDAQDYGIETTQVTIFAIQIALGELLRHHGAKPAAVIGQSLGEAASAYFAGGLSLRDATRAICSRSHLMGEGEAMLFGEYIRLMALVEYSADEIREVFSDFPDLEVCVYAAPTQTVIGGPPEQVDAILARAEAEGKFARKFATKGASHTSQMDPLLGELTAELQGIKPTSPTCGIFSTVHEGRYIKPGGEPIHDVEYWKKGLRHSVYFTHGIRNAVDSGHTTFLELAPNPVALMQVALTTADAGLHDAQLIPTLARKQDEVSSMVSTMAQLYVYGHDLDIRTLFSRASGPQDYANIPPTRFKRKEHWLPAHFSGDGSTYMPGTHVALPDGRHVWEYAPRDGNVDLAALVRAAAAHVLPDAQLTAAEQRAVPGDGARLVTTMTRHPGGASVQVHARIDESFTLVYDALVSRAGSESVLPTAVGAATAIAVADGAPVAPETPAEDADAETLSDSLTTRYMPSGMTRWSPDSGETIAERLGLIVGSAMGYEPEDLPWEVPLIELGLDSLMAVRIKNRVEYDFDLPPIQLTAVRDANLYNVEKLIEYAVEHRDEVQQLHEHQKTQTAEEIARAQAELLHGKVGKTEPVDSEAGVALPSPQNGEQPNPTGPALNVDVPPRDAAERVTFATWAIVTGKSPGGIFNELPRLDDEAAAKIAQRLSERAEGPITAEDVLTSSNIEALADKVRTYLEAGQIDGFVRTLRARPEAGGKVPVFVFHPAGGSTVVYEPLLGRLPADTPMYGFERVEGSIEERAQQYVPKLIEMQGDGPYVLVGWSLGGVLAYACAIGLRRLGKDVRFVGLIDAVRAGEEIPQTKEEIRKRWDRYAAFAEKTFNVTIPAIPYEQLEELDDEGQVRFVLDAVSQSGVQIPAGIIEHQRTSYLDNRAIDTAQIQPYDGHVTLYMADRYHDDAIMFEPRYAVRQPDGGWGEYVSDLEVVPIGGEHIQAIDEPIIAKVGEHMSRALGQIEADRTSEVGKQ

Leishmania in macrophages: 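Cell assay of Leishmania donovani living inside macrophages; the read-out is not stated. Compounds at 30 µM. The record gives no direction; compounds that gave an IC50 in retests scored well above the rest, so higher reads as stronger inhibition. About 69,000 compounds were tested under these conditions; 1.5% (about 1,000) showed 50% or more at least once.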
LiHisRS: 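Histidine-tRNA ligase, Leishmania infantum (UniProt A4I591). Enzyme assay of histidyl-tRNA synthetase; the read-out is not stated. Tested at 30 µM. Direction is inferred from retests: higher values go with stronger inhibition. The assay is labelled LdHisRS but filed under L. infantum. Of about 69,000 compounds tested this way, about 410 (0.6%) reached 50% or more in at least one test.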
Pks13 thioesterase: 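Enzyme assay of the thioesterase domain of polyketide synthase 13; the read-out is not stated. Target: Polyketide synthase Pks13, Mycobacterium tuberculosis (UniProt I6X8D2). Concentration: 30 µM. Higher reads as stronger inhibition (inferred from which compounds were picked for retests). Of about 67,000 compounds tested this way, about 300 (0.46%) reached 50% or more in at least one test.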

Results are given as percent effect.
The controls that fix the scale are not given in the record; negative values are as filed.
Compounds were drawn at random from those tested, without regard to their results.
Two or more numbers in one place are separate tests of the same structure; such repeats can differ widely.

* CC(C)c1nc(N2CC[C@@H](N(C)CCc3ccccn3)[C@H](O)C2)no1 | Leishmania in macrophages: 0.1909%; LiHisRS: 27.4%; Pks13 thioesterase: 7.726%
* O=C1CCC(CCC(=O)N2CCC2c2cccs2)=NN1 (stereo not shown) | Leishmania in macrophages: 4.551%; LiHisRS: 4.082%; Pks13 thioesterase: -2.865%
* O=C(c1noc2c1CCCC2)N1CCCC(c2nccs2)C1 (stereo not shown) | Leishmania in macrophages: 15.19%; LiHisRS: 5.714%; Pks13 thioesterase: -10.26%
* Cc1cnn(CC2CCCCN2CC(=O)NCc2ccccn2)c1 (stereo not shown) | Leishmania in macrophages: 16.17%; LiHisRS: 5.714%; Pks13 thioesterase: -40.09%
* [H][C@@]12CCN(C(=O)c3cnccn3)C[C@@]1([H])O[C@H](c1ccncn1)C2 | Leishmania in macrophages: 32.57%
* Cl.O=C(CCC1CCCC1)NCCn1nc(C2CCNC2)c2nccnc21 (stereo not shown) | Leishmania in macrophages: -13.46%
* CC(=O)N1CC(Cc2nccc3ccn(C)c23)C1 | Leishmania in macrophages: -8.608%; LiHisRS: 12.41%; Pks13 thioesterase: -22.65%
* CCC(NC(=O)C1CCN(S(C)(=O)=O)CC1)c1ccc(C)cc1C (stereo not shown) | Leishmania in macrophages: 8.338%; LiHisRS: 10.59%; Pks13 thioesterase: 0.4021%
* CCc1cc(C(=O)N2CC[C@@H](c3ccc4c(c3)OCO4)[C@H](O)C2)ccn1 | Leishmania in macrophages: 24.43%; LiHisRS: 11.5%; Pks13 thioesterase: 5.107%
* O=S(=O)(Nc1ccon1)c1cc(Cl)cc2c1OCC2 | Leishmania in macrophages: 19.19%; LiHisRS: 15.52%; Pks13 thioesterase: -45.23%
* CCN1CCN(C(=O)c2ccc(=O)n(C)c2)c2ccccc21 | Leishmania in macrophages: 7.042%; LiHisRS: 20%; Pks13 thioesterase: 2.211%
* CNc1ccc(Cl)cc1C(=O)N1CCC(Cn2cc(CN)nn2)CC1 | Leishmania in macrophages: -0.5442%; LiHisRS: 22.83%; Pks13 thioesterase: -4.047%
* CNS(=O)(=O)CCNCC1(O)CCCN(CCC2CCCCC2)C1=O (stereo not shown) | Leishmania in macrophages: 25.03%; LiHisRS: 18.4%
* COCCN(Cc1nc2c(cnn2C)c(=O)[nH]1)C(C)COC (stereo not shown) | Leishmania in macrophages: 17.73%; LiHisRS: 12.04%; Pks13 thioesterase: -12.93%
* COc1ccc2c(c1)C(C(=O)NCCN1CCNC1=O)CC(=O)N2 (stereo not shown) | Leishmania in macrophages: 4.476% and -31.33%; LiHisRS: -5.128%; Pks13 thioesterase: -17.69%
* CCN(CC)c1ncnc2c(C)nn(CC)c12 | Leishmania in macrophages: -12.9%; LiHisRS: 0%; Pks13 thioesterase: 3.614%
* CCc1ccc2nc(-c3cnn(C)c3)cc(C(=O)N3CCCC3)c2c1 | Leishmania in macrophages: 19.34%; LiHisRS: 3.333%; Pks13 thioesterase: 18.58%
* O=C(c1cccc(F)c1)N1CCCC1c1ncc2c(n1)CCNC2 (stereo not shown) | LiHisRS: 13.04%; Pks13 thioesterase: -2.307%
* CCC(CN1CCCC1)NC(=O)C1(c2cccc(F)c2)CC1.O=C(O)CC(O)(CC(=O)O)C(=O)O (stereo not shown) | Leishmania in macrophages: 43.99%
* CN1C(=O)C2(CCN(CC3CC3)CC2)c2ccccc21.O=C(O)C(F)(F)F | Leishmania in macrophages: 16.21%
* COc1ccc2oc(C(C)NC(=O)NCc3noc(C)n3)c(C)c2c1 (stereo not shown) | Leishmania in macrophages: -119.8% and 0.03773%; LiHisRS: 23.08%; Pks13 thioesterase: 6.861%
* Cc1cc(N2CCCC(O)CC2)n2nc(C)c(C)c2n1 (stereo not shown) | Leishmania in macrophages: -6.719%; LiHisRS: 6.452%; Pks13 thioesterase: 10.49%
* O=C(O)C(F)(F)F.[H][C@@]12CC(=O)N(Cc3csc(C)n3)[C@@]1([H])CCN2CC1CCOCC1 | Leishmania in macrophages: 37.04%
* O=C(O)C(F)(F)F.c1coc(CN2CCc3nnc(COc4cncnc4)n3CC2)c1 | Leishmania in macrophages: 11.26%
* CN(C)CCCNC(=O)c1nnsc1-c1ccccc1 | Leishmania in macrophages: 8.697%; LiHisRS: 20.99%; Pks13 thioesterase: -11.84%
* Cc1ccsc1CNCc1c(C(C)C)nn(C)c1N1CCOCC1 | Leishmania in macrophages: 6.548%; LiHisRS: 20.48%; Pks13 thioesterase: 10.99%
* CC(C)(C)c1cc(=O)[nH]c(C2(N)CCCCC2)n1 | LiHisRS: 9.804%; Pks13 thioesterase: -4.571%
* CCn1cc(S(=O)(=O)N2CCCC2c2ccc(C)o2)cn1 (stereo not shown) | Leishmania in macrophages: 11.6%; LiHisRS: 8.861%; Pks13 thioesterase: -30.82%
* CCN1CCN(C(=O)c2ccnc(N(C)C)c2)CC1 | Leishmania in macrophages: 29.92%; LiHisRS: 6.849%; Pks13 thioesterase: 9.835%
* CCS(=O)(=O)N1CCC2(CC1)CC[C@@]1(C(=O)N(C)C)CN(C)C[C@@H]21 | LiHisRS: 19.66%; Pks13 thioesterase: -4.495%
* [H][C@@]12CCN(C(=O)c3cscn3)C[C@@]1([H])O[C@@H](c1nnc(C3CC3)o1)C2 | Leishmania in macrophages: 7.973%
* CN(Cc1cccnc1)C1CC2(CCN(Cc3cccnc3)CC2)C1.O=C(O)C(F)(F)F.O=C(O)C(F)(F)F.O=C(O)C(F)(F)F | Leishmania in macrophages: 40.7%
* O=C(O)[C@@H]1CN(C(=O)CSCCN2CCCC2)C[C@H]1c1ccccc1 | Leishmania in macrophages: 15.43%; LiHisRS: 22.12%; Pks13 thioesterase: 1.601%
* CC(O)CN(C)C(=O)CCNC(=O)OC(C)(C)C (stereo not shown) | Leishmania in macrophages: -3.296%; LiHisRS: 12.24%; Pks13 thioesterase: 7.669%
* CC(C)C(=O)NC1CCCc2nc(N3CCOCC3)ncc21 (stereo not shown) | Leishmania in macrophages: 8.847%; LiHisRS: 9.375%; Pks13 thioesterase: -23.24%
* Cc1cc(C(=O)N2CC[C@H]3[C@H](C[C@@H](CN4CCCC4)N3C)C2)c(C)o1 | LiHisRS: 5.769%; Pks13 thioesterase: -16.72%
* CN(Cc1ccccc1)c1ncccc1CNC1CCC1 | Leishmania in macrophages: 10.95%; LiHisRS: 6.452%; Pks13 thioesterase: 1.741%
* CN(C)CC1(O)CCCN(c2ccnc3c(C(F)(F)F)cccc23)C1 (stereo not shown) | Leishmania in macrophages: 16.94%; LiHisRS: 17.07%; Pks13 thioesterase: 5.476%
* CN(C)C(=O)N1CC2(CCN(S(=O)(=O)C3CC3)CC2)c2ccccc21 | Leishmania in macrophages: 4.634%; LiHisRS: 3.947%; Pks13 thioesterase: -4.868%

From ChEMBL document CHEMBL3988442, “University of Dundee, Small-Polar-MMV Screening Library” (2021).